Test results: the supplement of paper PMC10849652
This is one part of the list.

Chains of the proteins cited; added tags and fusions are not shown. Lines headed by an entry give the natural chain unless they say otherwise; changes in a name come on top.
UniProt Q9C0B0: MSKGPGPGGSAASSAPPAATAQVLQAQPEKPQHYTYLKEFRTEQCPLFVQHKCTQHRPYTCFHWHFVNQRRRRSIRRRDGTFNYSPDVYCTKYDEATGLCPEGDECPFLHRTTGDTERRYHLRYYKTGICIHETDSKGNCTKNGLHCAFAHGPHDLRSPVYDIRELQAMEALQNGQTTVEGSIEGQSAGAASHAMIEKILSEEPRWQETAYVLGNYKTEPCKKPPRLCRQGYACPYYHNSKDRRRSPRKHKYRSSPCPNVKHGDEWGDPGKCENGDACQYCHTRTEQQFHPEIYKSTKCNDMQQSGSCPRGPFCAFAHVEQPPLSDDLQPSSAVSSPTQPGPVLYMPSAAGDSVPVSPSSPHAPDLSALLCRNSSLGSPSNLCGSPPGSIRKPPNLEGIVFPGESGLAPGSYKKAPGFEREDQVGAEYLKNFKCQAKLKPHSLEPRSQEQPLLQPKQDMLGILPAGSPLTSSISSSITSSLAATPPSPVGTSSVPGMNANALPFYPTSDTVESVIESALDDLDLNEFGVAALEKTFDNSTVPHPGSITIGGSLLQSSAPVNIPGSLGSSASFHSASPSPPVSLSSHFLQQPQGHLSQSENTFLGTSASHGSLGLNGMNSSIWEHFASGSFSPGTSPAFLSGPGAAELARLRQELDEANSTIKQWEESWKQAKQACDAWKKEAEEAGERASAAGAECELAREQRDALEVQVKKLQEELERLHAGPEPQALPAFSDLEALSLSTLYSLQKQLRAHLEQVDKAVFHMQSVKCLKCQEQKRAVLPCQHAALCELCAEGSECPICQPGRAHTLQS
UniProt P61758, whole entry, looked up: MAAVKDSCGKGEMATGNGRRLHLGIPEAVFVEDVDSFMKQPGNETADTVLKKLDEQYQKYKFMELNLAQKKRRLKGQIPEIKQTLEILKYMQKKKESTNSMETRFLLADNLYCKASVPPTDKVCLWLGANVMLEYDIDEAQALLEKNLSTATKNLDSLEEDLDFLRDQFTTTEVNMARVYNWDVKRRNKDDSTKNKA
UniProt Q9NQZ2: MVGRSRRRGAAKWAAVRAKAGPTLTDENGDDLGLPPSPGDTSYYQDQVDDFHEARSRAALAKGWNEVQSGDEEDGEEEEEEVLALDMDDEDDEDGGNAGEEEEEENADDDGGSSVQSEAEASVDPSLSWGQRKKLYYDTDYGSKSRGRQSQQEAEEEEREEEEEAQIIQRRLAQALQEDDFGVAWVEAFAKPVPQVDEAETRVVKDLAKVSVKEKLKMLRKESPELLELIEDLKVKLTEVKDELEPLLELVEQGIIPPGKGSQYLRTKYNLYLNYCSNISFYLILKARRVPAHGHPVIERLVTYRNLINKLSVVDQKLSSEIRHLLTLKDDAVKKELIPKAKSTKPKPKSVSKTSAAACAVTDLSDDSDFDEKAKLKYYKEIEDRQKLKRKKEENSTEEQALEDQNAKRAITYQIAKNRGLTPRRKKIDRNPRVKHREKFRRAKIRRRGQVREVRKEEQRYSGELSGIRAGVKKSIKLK
UniProt P15498: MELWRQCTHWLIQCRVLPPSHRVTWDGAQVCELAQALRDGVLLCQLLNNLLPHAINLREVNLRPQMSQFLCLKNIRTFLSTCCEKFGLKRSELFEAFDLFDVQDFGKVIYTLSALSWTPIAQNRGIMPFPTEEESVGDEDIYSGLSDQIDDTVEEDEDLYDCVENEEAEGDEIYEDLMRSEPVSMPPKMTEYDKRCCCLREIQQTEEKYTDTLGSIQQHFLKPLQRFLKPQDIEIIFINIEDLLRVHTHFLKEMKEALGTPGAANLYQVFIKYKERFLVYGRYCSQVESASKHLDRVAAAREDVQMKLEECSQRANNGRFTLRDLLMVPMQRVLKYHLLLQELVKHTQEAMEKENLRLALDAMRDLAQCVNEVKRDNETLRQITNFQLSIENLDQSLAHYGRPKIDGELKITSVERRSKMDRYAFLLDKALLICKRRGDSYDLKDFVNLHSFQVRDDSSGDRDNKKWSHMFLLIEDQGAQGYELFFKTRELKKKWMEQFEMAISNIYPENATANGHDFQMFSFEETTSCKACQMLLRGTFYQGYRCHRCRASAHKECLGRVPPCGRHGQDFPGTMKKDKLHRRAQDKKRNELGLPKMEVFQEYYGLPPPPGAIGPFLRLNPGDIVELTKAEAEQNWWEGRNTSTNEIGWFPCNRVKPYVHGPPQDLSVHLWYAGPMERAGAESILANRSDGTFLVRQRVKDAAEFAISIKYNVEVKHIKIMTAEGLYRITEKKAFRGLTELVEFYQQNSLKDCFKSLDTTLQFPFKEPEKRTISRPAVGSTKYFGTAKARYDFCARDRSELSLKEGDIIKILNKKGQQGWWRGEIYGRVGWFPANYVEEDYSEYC
UniProt P06132: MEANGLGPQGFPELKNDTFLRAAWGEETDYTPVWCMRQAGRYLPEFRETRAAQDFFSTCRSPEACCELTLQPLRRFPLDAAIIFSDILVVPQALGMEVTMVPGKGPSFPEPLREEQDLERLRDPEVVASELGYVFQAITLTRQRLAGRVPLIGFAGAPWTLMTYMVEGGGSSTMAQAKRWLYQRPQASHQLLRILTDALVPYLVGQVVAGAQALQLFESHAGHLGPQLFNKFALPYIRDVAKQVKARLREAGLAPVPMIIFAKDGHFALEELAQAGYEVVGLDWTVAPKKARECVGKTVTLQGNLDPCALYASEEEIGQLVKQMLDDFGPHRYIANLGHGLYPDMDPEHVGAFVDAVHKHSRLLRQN
UniProt Q16880: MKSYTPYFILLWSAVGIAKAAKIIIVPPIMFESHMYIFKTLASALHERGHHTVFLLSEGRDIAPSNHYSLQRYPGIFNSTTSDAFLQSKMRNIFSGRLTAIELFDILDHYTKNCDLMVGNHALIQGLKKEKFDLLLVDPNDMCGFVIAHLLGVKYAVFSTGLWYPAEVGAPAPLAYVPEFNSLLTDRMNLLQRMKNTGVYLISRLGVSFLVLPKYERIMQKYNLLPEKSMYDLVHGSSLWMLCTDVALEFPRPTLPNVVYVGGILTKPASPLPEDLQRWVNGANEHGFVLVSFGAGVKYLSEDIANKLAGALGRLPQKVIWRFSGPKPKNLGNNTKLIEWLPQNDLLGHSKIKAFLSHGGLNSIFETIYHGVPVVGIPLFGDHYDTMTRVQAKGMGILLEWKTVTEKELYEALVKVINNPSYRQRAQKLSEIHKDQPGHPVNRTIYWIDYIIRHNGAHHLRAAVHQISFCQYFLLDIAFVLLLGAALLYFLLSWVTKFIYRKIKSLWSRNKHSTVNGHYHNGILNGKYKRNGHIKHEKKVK
UniProt Q9Y5T5, whole entry, looked up: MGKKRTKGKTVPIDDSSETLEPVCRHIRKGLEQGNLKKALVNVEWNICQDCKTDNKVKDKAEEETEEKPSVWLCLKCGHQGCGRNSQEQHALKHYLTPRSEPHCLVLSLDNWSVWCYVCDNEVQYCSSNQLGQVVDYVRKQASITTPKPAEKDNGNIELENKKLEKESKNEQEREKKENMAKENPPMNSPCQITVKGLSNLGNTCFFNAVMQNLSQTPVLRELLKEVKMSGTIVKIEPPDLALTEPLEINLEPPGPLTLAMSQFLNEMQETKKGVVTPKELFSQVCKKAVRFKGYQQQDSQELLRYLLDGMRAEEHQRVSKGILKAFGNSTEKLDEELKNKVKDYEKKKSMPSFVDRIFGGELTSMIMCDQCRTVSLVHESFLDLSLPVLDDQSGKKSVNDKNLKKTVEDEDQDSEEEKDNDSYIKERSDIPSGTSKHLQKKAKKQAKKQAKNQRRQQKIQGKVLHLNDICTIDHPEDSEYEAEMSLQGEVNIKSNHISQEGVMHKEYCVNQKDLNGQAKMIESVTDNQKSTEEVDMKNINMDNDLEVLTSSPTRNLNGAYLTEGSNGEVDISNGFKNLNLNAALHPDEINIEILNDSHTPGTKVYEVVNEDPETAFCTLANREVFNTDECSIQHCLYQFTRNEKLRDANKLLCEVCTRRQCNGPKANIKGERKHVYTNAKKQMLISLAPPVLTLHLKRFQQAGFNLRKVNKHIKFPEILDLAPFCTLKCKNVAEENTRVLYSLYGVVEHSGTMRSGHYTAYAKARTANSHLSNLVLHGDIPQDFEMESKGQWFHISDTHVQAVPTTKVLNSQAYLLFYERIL
UniProt Q93009, whole entry, looked up: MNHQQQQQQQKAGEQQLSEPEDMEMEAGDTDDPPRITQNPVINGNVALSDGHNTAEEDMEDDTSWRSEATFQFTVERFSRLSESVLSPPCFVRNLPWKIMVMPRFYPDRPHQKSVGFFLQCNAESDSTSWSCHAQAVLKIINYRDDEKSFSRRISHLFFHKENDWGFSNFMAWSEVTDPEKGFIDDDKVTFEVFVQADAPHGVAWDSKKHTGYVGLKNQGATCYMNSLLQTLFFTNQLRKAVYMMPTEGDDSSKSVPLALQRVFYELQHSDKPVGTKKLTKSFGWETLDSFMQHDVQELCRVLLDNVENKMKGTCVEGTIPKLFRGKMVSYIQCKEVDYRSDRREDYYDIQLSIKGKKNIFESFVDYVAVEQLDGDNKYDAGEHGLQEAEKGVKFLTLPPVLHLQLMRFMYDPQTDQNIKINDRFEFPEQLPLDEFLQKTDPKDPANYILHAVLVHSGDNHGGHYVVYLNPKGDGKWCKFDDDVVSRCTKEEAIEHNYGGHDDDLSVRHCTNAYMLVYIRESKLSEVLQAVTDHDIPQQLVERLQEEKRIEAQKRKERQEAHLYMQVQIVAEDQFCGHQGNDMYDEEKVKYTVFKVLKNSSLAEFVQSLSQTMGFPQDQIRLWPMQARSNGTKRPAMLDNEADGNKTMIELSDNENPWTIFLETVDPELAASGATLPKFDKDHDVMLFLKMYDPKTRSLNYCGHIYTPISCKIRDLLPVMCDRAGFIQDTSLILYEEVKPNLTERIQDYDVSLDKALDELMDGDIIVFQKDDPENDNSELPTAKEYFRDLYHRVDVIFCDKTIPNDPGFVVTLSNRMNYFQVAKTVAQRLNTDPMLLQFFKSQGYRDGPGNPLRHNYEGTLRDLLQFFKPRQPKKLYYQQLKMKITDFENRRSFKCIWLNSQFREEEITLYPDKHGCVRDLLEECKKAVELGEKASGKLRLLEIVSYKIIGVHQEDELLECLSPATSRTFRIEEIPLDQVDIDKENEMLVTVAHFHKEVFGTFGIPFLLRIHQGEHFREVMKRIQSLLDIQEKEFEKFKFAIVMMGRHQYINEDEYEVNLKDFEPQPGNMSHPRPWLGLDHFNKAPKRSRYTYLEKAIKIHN
UniProt P14927: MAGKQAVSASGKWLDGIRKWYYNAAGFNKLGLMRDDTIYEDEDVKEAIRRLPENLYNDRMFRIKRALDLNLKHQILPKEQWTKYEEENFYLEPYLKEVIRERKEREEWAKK
UniProt Q9Y3A2: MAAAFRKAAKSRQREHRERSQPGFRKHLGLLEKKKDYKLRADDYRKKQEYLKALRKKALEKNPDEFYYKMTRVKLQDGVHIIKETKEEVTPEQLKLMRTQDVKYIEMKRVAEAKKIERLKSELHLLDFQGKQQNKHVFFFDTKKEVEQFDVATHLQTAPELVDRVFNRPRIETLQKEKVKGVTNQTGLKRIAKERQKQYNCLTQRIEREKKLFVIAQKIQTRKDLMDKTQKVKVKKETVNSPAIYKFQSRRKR
UniProt Q9NUQ7: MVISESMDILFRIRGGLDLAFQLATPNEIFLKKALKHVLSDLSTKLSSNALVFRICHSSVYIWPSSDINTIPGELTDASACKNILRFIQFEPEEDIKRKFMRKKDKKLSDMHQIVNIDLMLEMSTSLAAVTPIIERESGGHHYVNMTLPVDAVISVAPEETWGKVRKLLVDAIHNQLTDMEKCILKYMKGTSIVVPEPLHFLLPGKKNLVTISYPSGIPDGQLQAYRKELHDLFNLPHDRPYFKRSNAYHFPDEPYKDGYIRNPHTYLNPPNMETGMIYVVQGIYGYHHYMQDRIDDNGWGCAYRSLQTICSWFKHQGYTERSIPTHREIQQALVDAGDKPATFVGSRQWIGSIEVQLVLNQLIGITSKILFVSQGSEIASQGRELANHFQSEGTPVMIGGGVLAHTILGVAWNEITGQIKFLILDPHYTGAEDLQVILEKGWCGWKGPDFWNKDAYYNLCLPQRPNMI
UniProt P61960, whole entry, looked up: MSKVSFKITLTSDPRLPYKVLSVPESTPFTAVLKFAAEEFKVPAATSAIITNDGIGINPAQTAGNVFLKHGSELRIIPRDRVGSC
UniProt Q9P0L0: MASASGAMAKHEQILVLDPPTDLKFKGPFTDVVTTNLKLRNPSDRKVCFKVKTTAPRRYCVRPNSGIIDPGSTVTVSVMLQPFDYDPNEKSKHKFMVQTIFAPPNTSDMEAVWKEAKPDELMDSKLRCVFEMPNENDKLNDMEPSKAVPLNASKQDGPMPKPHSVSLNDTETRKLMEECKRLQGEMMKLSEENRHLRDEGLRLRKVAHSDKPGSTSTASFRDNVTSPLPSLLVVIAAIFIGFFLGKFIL
UniProt Q9NZ43: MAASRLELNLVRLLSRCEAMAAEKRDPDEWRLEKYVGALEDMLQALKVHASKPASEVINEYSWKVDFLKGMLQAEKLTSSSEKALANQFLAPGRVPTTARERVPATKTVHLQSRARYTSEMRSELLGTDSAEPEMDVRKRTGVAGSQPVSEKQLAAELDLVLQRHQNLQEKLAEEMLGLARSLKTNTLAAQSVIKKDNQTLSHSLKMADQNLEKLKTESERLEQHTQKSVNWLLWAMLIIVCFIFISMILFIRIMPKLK

Assays:
Assay in all cases: log2 fold change, soluble protein after heating vs DMSO (PISA); higher = thermal stabilisation; K562 lysate, 10 uM; active = over 0.2 and 3.5 SD of the protein, either way, in both replicates (recomputed)
lapatinib = compound: CS(=O)(=O)CCNCc1ccc(-c2ccc3ncnc(Nc4ccc(OCc5cccc(F)c5)c(Cl)c4)c3c2)o1 [lapatinib]
In short: (§1)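 Dounce homogenisation of K562 pellets in PBS pH 7.4 with 1 mM MgCl2 produced a crude extract, used at 1 mg/mL protein. Exposure to 10 μM compound lasted 30 min, and aliquots were then heated for 3 min across 48°C-58°C, pooled and brought to 0.5% NP-40 at 4°C. The supernatant after 21,000xg for 90 min was quantified by TMTpro 16plex LC-MS/MS with channel sums equalised. Duplicate values are given as log-two fold change in thermal stability relative to solvent controls.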

pictilisib = compound: CS(=O)(=O)N1CCN(Cc2cc3nc(-c4cccc5[nH]ncc45)nc(N4CCOCC4)c3s2)CC1 [pictilisib]
In short: as §1

crizotinib = compound: C[C@@H](Oc1cc(-c2cnn(C3CCNCC3)c2)cnc1N)c1c(Cl)ccc(F)c1Cl [crizotinib]
In short: as §1

[1] = compound: C[C@H](C1=CC=C(C=C1)C(=O)NC2=C3C=CNC3=NC=C2)N
In short: as §1

duvelisib = compound: C[C@H](Nc1ncnc2nc[nH]c12)c1cc2cccc(Cl)c2c(=O)n1-c1ccccc1 [duvelisib]
In short: as §1

gandotinib = compound: Cc1cc(Nc2cc(CN3CCOCC3)c3nc(C)c(Cc4ccc(Cl)cc4F)n3n2)n[nH]1 [gandotinib]
In short: as §1

tozasertib = compound: Cc1cc(Nc2cc(N3CCN(C)CC3)nc(Sc3ccc(NC(=O)C4CC4)cc3)n2)n[nH]1 [tozasertib]
In short: as §1

doramapimod = compound: Cc1ccc(-n2nc(C(C)(C)C)cc2NC(=O)Nc2ccc(OCCN3CCOCC3)c3ccccc23)cc1 [doramapimod]
In short: as §1

bafetinib = compound: Cc1ccc(NC(=O)c2ccc(CN3CC[C@H](N(C)C)C3)c(C(F)(F)F)c2)cc1Nc1nccc(-c2cncnc2)n1 [bafetinib]
In short: as §1

[2] = compound: Cc1cccc(CC(=O)N2CCc3c2ccc(-c2cn(C)c4ncnc(N)c24)c3F)n1
In short: as §1

Row | Target | log2 fold change (lapatinib) | log2 fold change (pictilisib) | log2 fold change (crizotinib) | log2 fold change [1] | log2 fold change (duvelisib) | log2 fold change (gandotinib) | log2 fold change (tozasertib) | log2 fold change (doramapimod) | log2 fold change (bafetinib) | log2 fold change [2]
1 | UNK (UniProt Q9C0B0) | inactive: 0.03 | inactive: 0.03 | inactive: -0.021 | inactive: -0.016 | inactive: -0.006 | inactive: -0.017 | inactive: -0.002 | inactive: -0.03 | inactive: -0.052 | inactive: 0.077
2 | UXS1 isoform 2 (UniProt Q8NBZ7) | inactive: -0.083 | inactive: -0.044 | inactive: 0.026 | inactive: 0.047 | inactive: 0.023 | inactive: 0.005 | inactive: -0.043 | inactive: -0.006 | inactive: -0.064 | inactive: -0.001
3 | VBP1 (UniProt P61758) | inactive: 0.027 | inactive: 0.009 | inactive: 0.007 | inactive: -0.012 | inactive: 0.001 | inactive: 0.013 | inactive: 0.001 | inactive: 0.013 | inactive: 0.021 | inactive: -0.023
4 | UQCRC2 (UniProt P22695) | inactive: -0.04 | inactive: -0.008 | inactive: 0.019 | inactive: -0.011 | inactive: 0.001 | inactive: -0.004 | inactive: -0.025 | inactive: -0.027 | inactive: -0.05 | inactive: -0.007
5 | VIRMA (UniProt Q69YN4) | inactive: -0.062 | inactive: -0.049 | inactive: -0.048 | inactive: 0.022 | inactive: -0.027 | inactive: -0.064 | inactive: 0.019 | inactive: 0.029 | inactive: -0.046 | inactive: 0.065
6 | USP28 isoform 2 (UniProt Q96RU2) | inactive: 0.013 | inactive: -0.06 | inactive: -0.043 | inactive: -0.029 | inactive: 0.051 | inactive: -0.023 | inactive: 0.01 | inactive: 0.002 | inactive: -0.029 | inactive: 0.059
7 | UTP3 (UniProt Q9NQZ2) | inactive: 0.002 | inactive: -0.031 | inactive: -0.094 | inactive: -0.008 | inactive: 0.031 | inactive: -0.007 | inactive: -0.027 | inactive: 0.066 | inactive: -0.061 | inactive: 0.029
8 | VAV1 (UniProt P15498) | inactive: 0 | inactive: 0.012 | inactive: -0.059 | inactive: -0.057 | inactive: 0.071 | inactive: -0.02 | inactive: 0.011 | inactive: -0.044 | inactive: -0.087 | inactive: 0.066
9 | USF2 (UniProt Q15853) | inactive: 0.02 | inactive: 0.007 | inactive: 0.031 | inactive: 0.055 | inactive: 0.054 | inactive: 0.016 | inactive: 0.143 | inactive: -0.053 | inactive: 0.006 | inactive: -0.014
10 | UROD (UniProt P06132) | inactive: 0.034 | inactive: -0.003 | inactive: 0.033 | inactive: -0.018 | inactive: 0.01 | inactive: 0.006 | inactive: -0.03 | inactive: 0 | inactive: 0.096 | inactive: -0.036
11 | UHRF1BP1 (UniProt Q6BDS2) | inactive: 0.093 | inactive: -0.033 | inactive: 0.027 | inactive: -0.081 | inactive: -0.047 | inactive: 0.239 | inactive: 0.018 | inactive: 0.025 | inactive: -0.001 | inactive: 0.087
12 | UGT8 (UniProt Q16880) | inactive: 0.114 | inactive: -0.101 | inactive: 0.019 | inactive: -0.169 | inactive: 0.085 | inactive: 0.031 | inactive: 0.021 | inactive: -0.038 | inactive: -0.064 | inactive: 0.024
13 | VAT1 (UniProt Q99536) | inactive: -0.022 | inactive: -0.034 | inactive: 0.026 | inactive: -0.004 | inactive: 0.001 | inactive: -0.001 | inactive: 0.003 | inactive: -0.013 | inactive: 0.025 | inactive: -0.048
14 | USP16 (UniProt Q9Y5T5) | inactive: 0.003 | inactive: -0.049 | inactive: -0.018 | inactive: 0.003 | inactive: 0.049 | inactive: -0.039 | inactive: 0.006 | inactive: -0.017 | inactive: -0.037 | inactive: 0.035
15 | USP7 (UniProt Q93009) | inactive: -0.015 | inactive: -0.006 | inactive: -0.016 | inactive: -0.057 | inactive: -0.011 | inactive: -0.007 | inactive: -0.017 | inactive: 0.023 | inactive: -0.001 | inactive: 0.063
16 | UQCRB (UniProt P14927) | inactive: 0.009 | inactive: -0.071 | inactive: -0.003 | inactive: -0.028 | inactive: 0.005 | inactive: -0.221 | inactive: 0.038 | inactive: 0.022 | inactive: 0.008 | inactive: 0.024
17 | UTP11 (UniProt Q9Y3A2) | inactive: -0.029 | inactive: -0.042 | inactive: 0.032 | inactive: -0.285 | inactive: -0.015 | inactive: 0.064 | inactive: 0.251 | inactive: 0.072 | inactive: -0.793 | inactive: 0.202
18 | VEZF1 (UniProt Q14119) | inactive: 0 | inactive: 0.02 | inactive: -0.138 | inactive: -0.246 | inactive: 0.113 | inactive: 0.188 | inactive: 0.042 | inactive: 0.311 | inactive: 0.021 | inactive: -0.044
19 | VAMP3 (UniProt Q15836) | inactive: 0.064 | inactive: -0.011 | inactive: 0.044 | inactive: -0.107 | inactive: -0.091 | inactive: 0.014 | inactive: 0.007 | inactive: -0.077 | inactive: 0.035 | inactive: 0.017
20 | VAMP4 (UniProt O75379) | inactive: 0.036 | inactive: 0.02 | inactive: 0.024 | inactive: -0.064 | inactive: 0.044 | inactive: 0.014 | inactive: 0.01 | inactive: 0.062 | inactive: -0.02 | inactive: 0.05
21 | UHRF1 isoform 2 (UniProt Q96T88) | inactive: 0.01 | inactive: -0.083 | inactive: -0.03 | inactive: -0.116 | inactive: 0.036 | inactive: -0.047 | inactive: 0.091 | inactive: 0.047 | inactive: 0.06 | inactive: 0.006
22 | UGGT2 (UniProt Q9NYU1) | inactive: -0.008 | inactive: 0.096 | inactive: -0.025 | inactive: -0.014 | inactive: 0.075 | inactive: -0.045 | inactive: -0.04 | inactive: -0.001 | inactive: -0.066 | inactive: 0.058
23 | UNC13D (UniProt Q70J99) | inactive: -0.032 | inactive: -0.032 | inactive: -0.038 | inactive: 0.029 | inactive: -0.039 | inactive: -0.089 | inactive: -0.015 | inactive: 0.009 | inactive: -0.066 | inactive: 0.002
24 | USP3 (UniProt Q9Y6I4) | inactive: -0.016 | inactive: 0.001 | inactive: -0.033 | inactive: 0.031 | inactive: 0.01 | inactive: -0.056 | inactive: 0.021 | inactive: -0.03 | inactive: 0.01 | inactive: -0.04
25 | UFSP2 (UniProt Q9NUQ7) | inactive: -0.02 | inactive: -0.008 | inactive: -0.022 | inactive: -0.012 | inactive: 0.009 | inactive: -0.004 | inactive: 0.017 | inactive: 0.002 | inactive: -0.028 | inactive: 0.017
26 | USP19 isoform 6 (UniProt O94966) | inactive: -0.034 | inactive: -0.031 | inactive: -0.004 | inactive: -0.015 | inactive: 0.046 | inactive: -0.021 | inactive: -0.022 | inactive: -0.027 | inactive: -0.026 | inactive: 0.004
27 | UFM1 (UniProt P61960) | inactive: 0.134 | inactive: 0.033 | inactive: 0.191 | active: 0.566 | inactive: 0.077 | inactive: -0.36 | inactive: -0.002 | inactive: 0.022 | inactive: 0.102 | inactive: -0.319
28 | VAPA isoform 2 (UniProt Q9P0L0) | inactive: 0.003 | inactive: -0.007 | inactive: 0.008 | inactive: -0.154 | inactive: 0.017 | inactive: 0.129 | inactive: 0.025 | inactive: 0.033 | inactive: 0.056 | inactive: 0.142
29 | USE1 (UniProt Q9NZ43) | inactive: -0.035 | inactive: 0.088 | inactive: -0.057 | inactive: 0.039 | inactive: -0.056 | inactive: -0.103 | inactive: 0.011 | inactive: 0.112 | inactive: -0.019 | inactive: 0.027

Two entries from above, as tab-separated lines.
Row	Target	log2 fold change (lapatinib)	log2 fold change (pictilisib)	log2 fold change (crizotinib)	log2 fold change [1]	log2 fold change (duvelisib)	log2 fold change (gandotinib)	log2 fold change (tozasertib)	log2 fold change (doramapimod)	log2 fold change (bafetinib)	log2 fold change [2]
12	UGT8 (UniProt Q16880)	inactive: 0.114	inactive: -0.101	inactive: 0.019	inactive: -0.169	inactive: 0.085	inactive: 0.031	inactive: 0.021	inactive: -0.038	inactive: -0.064	inactive: 0.024
26	USP19 isoform 6 (UniProt O94966)	inactive: -0.034	inactive: -0.031	inactive: -0.004	inactive: -0.015	inactive: 0.046	inactive: -0.021	inactive: -0.022	inactive: -0.027	inactive: -0.026	inactive: 0.004
